Assay: general procedure: Fmoc solid-phase peptide synthesis; Fmoc Rink Amide MBHA resin
Conditions: 1:1 trifluoroacetate; for crude HPLC purity / crude purity (method not given): whole synthesis

Question: For “Cyclo (Asp-Lys) Pentanoyl-Asp-(4-MeO-Apc)-D-Phe-Arg-Lys-NH2 1:1 Trifluoroacetate”, which “final purity (method not given)” value (purification step, % AN, assay % w/w) is on record?
Answer: The value was 94%.

Question: What about the step yield (purification step, overall contained yield) of the same substance?
Answer: Its step yield is 85%.

Question: What about the “crude HPLC purity” value (% AN, run 1) of the same substance?
Answer: Its value is 30.70%.

Question: And the “crude HPLC purity” value (% AN, run 2)?
Answer: Its value is 46.30%.

Question: What about the “crude HPLC purity” value (% AN, run 3) of the same substance?
Answer: The value was 45.30%.

Question: What about the “crude purity (method not given)” value (% AN, assay % w/w, run 1) of the same substance?
Answer: Its value is 8%.

Question: What about the “crude purity (method not given)” value (% AN, assay % w/w, run 2) of the same substance?
Answer: Its value is 10%.

— patent publication US20080287649 (published 2008)
